Values from PubChem BioAssay AID1224827 (NIAID, 2016)

Purpose: 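Confirm genes whose knock-down changes LPS-driven TNF promoter activity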 (follow-up of hits)
Cells: RAW264.7 G9 mouse macrophage reporter clone
Reagent: single siRNA against mouse genes, 100 nM siRNA
Time to read-out: siRNA for 2 days, then LPS about 16 h
Treatment: bacterial lipopolysaccharide (LPS), 10 ng/ml, cells fixed after overnight (about 16 h) stimulation
Measured: 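TNF promoter reporter red fluorescence in nuclei, background subtracted, normalised per plate and to non-targeting control siRNA, as z-scores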
Reading the numbers: TNF reporter z-score, mean: higher = stronger Tnf promoter reporter signal; gene median z, three same-vendor siRNAs: higher = stronger Tnf reporter signal for the gene
Call rule: 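An siRNA is called active when its mean z-score over replicates is at least +2 or at most -2; control wells get no call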
Here is a random part of about 3,800 deposited reagents. In the full data, about 2,200 (57%) got an active call. 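Active means a strong reporter change in either direction; calls are per siRNA, not per gene; qiagen siRNAs gave weaker effects.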 Entries without a mark were called inactive. The numbers tell different reagents against one gene apart. Not all columns of the deposit are shown.

What is on record for Irx3 #1?
TNF reporter z-score, mean: 0.102; gene median z, three same-vendor siRNAs: -2

For Irx3 #2, what was measured?
TNF reporter z-score, mean: -2.15 (active); gene median z, three same-vendor siRNAs: -2

What did the screen give for Irx3 #3?
TNF reporter z-score, mean: -3.28 (active); gene median z, three same-vendor siRNAs: -2

For Irx3 #4, what was measured?
TNF reporter z-score, mean: 3.77 (active); gene median z, three same-vendor siRNAs: 0.232

What is on record for Irx3 #5?
TNF reporter z-score, mean: 0.232; gene median z, three same-vendor siRNAs: 0.232

What is on record for Irx3 #6?
TNF reporter z-score, mean: -1.54; gene median z, three same-vendor siRNAs: 0.232

What is on record for Cnpy3 #1?
TNF reporter z-score, mean: 0.208; gene median z, three same-vendor siRNAs: -2.5

With Cnpy3 #2, what was measured?
TNF reporter z-score, mean: -1.87; gene median z, three same-vendor siRNAs: -2.5

For Cnpy3 #3, what was measured?
TNF reporter z-score, mean: -3.24 (active); gene median z, three same-vendor siRNAs: -2.5

What did the screen give for Cnpy3 #4?
TNF reporter z-score, mean: 3.74 (active); gene median z, three same-vendor siRNAs: 0.125

What did the screen give for Cnpy3 #5?
TNF reporter z-score, mean: 0.462; gene median z, three same-vendor siRNAs: 0.125

What did the screen give for Cnpy3 #6?
TNF reporter z-score, mean: -2.49 (active); gene median z, three same-vendor siRNAs: 0.125
